Results on 62 compounds are retold here after PubChem BioAssay AID493014 (National Center for Advancing Translational Sciences (NCATS), 2011).

One may read the AC50 as the concentration at which the activity in the assay is half-maximal.

The assay is described as follows: qHTS Assay to Find Inhibitors of Chronic Active B-Cell Receptor Signaling. To be noted: ABC-DLBCL IkBa-CBG/CBR reporter, luminescence ratio (green luciferase fused to IkBa over red control in TMD8 lymphoma cells), 4 h. Put shortly:
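Compounds up to 46 uM were incubated four hours with TMD8 cells whose green CBG68 luciferase is fused to IkappaBalpha; red CBR luminescence normalised the signal, and concentration-effect curves were fitted to fusion, red and ratio data.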
(In general: qHTS replaces the single test concentration by a dilution series.)

[1] abbreviates: measured here: CBR red luminescence, cell number.
Setting [2] is: measured here: IkBa-CBG green luminescence.

SMILES strings stand for the structures. Where “and” joins values, the source holds several entries; their conditions need not be identical. Equal values may be shown once. Some of the results follow. The main result of the screen is listed elsewhere. These columns were measured beside it and carry no call. Compounds called inactive in the main read-out are mostly missing here. Potencies come from curve fits of mixed quality, noted in brackets.

With `Cc1cccc2cc(=O)[nH]c(C)c12`, the AC50 under setting [1] is 10 µM [falling, partial curve]. As for `Cc1cc(=O)oc2cc(OCC(=O)N3CC[C@@]4(O)CCCC[C@H]4C3)c(Cl)cc12`, the AC50 under setting [1] was 0.1 µM [rising, full curve, poor fit].

In the case of `CSc1nc2nccc(-c3ccc(-c4ccccc4)cc3)n2n1`, the AC50 under setting [1] was 1.84 µM [rising, partial curve, poor fit]. In the case of `O=C(NC1CC1)C1CCN(S(=O)(=O)c2ccc(Cl)c([N+](=O)[O-])c2)CC1`, the AC50 under setting [1] was 2.59 µM [falling, partial curve, poor fit]. The same measure, in the same setting: then `Cc1ccc(C)c(NC(=S)NNC(=O)c2csc3c2CCCC3)c1`, with 0.082 µM [falling, partial curve, poor fit]; and `N#C/C(=C\c1cccc(O)c1)c1nc2ccccc2o1`, with 35.5 µM [falling, single point]. For `CCCCNc1c(-c2ccc(SC3CCCCC3)cc2)nc2cnccn12`, under setting [1], the AC50 was 4.61 µM [rising, full curve]. Still for that read-out and setting: then `C/C(CC(=O)Nc1ccc(Cl)cc1C(F)(F)F)=N\NC(=O)c1cccs1`, with 11.2 µM [falling, partial curve]; and `O=C(CCCN1C(=O)/C(=C/c2cccc(Br)c2)SC1=S)N1CCOCC1`, with 4.47 µM [falling, full curve, poor fit]. Regarding `COC(=O)NNC(=O)c1ccc(C)c(Br)c1`, under setting [1], the AC50 is 2.59 µM [rising, partial curve, poor fit]. On the same count and under the same terms, the figure for `CN1CCN(CCC(=O)N2c3ccccc3Sc3ccc(C(F)(F)F)cc32)CC1` is 5.8 µM [rising, full curve, poor fit]; for `COc1ccc(CNC(=O)c2cnc(C)cn2)c(OC)c1` it is 35.5 µM [rising, single point]; for `Cc1ccc(C)c(OCCCCN2CCNCC2)c1C` it is 35.5 µM [falling, single point]. Still for that read-out and setting: the figure for `Cc1cccn2c(=O)c3cc(C(=O)NCC(C)C)sc3nc12` is 3.16 µM [rising, partial curve, poor fit]. On the same count and under the same terms, then `O=C(c1ccccc1Sc1c(Cl)cccc1[N+](=O)[O-])N1CCOCC1`, with 3.26 µM [rising, full curve, poor fit]; and `O=C(CCN1CCCCC1)Nc1cccc(Cl)c1`, with 6.51 µM [rising, single point]; and `Cc1nc(N)sc1-c1nnc(SCC(=O)Nc2ccccc2C(F)(F)F)n1C`, with 1.64 µM [falling, partial curve, poor fit]. For the compound `COc1ccccc1CNC(=O)CCN1C(=O)c2ccccc2C1=O`, under setting [1], the AC50 was 5.01 µM [rising, full curve, poor fit]. `Cc1c(C(C)(C)C)sc(=NC(=O)c2ccccc2O)n1C`: under setting [1], the AC50 was 0.398 µM [rising, full curve, poor fit]. Same read-out and setting: then `O=C(Nc1cc(-c2ccccc2)[nH]n1)c1ccc(Cl)cc1`, with 11.2 µM [falling, partial curve, poor fit] and 3.16 µM [falling, partial curve, poor fit]. Consider `CCC(Sc1nc(C)cc(=O)[nH]1)C(=O)Nc1nc2c(s1)CCCC2` (stereo not drawn), for which the AC50 is, setting by setting: under setting [1], 20 µM [falling, single point]; under setting [2], 17.8 µM [falling, partial curve, poor fit]. For the compound `CCCCCCCC(=O)N/N=C/c1ccncc1`, under setting [1], the AC50 is 3.16 µM [rising, single point].

As for `CCOc1ccc(C(=O)N2CCN(S(=O)(=O)c3cccs3)CC2)c(OCC)c1`, under setting [1], the half-maximal activity concentration (AC50) is 22.4 µM [falling, single point]. Regarding `COC(=O)c1ccc2c(=O)n(CCCCCC(=O)NCCc3ccccc3)c(=O)[nH]c2c1`, the AC50 runs as follows: under setting [1], 1 µM [falling, full curve, poor fit]; under setting [2], 3.16 µM [rising, full curve, poor fit]. Turning to `Cc1nn(CC(=O)NC(C)CCc2ccccc2)c(=O)c2nn(-c3ccccc3)c(C)c12` (stereo not drawn), the AC50 under setting [1] is 7.94 µM [rising, partial curve, poor fit].

Regarding `CC1=NN(c2ccc([N+](=O)[O-])cc2)C(=O)/C1=C\N(C)C`, the AC50 under setting [1] was 10.3 µM [falling, partial curve].

On to `C=CCSc1nc2c(cnn2-c2ccccc2)c(=O)n1N`, for which the AC50 under setting [1] was 8.91 µM [falling, single point]. The same measure, in the same setting: then `COc1cccc(NC(=O)C(=O)NCCC2CCCCN2S(=O)(=O)c2ccccc2)c1` (stereo not drawn), with 7.31 µM [falling, partial curve].

On to `O=C(Nc1ccc(OCC(=O)N2CCOCC2)cc1)Nc1cccc2ccccc12`, for which, under setting [1], the AC50 was 12.6 µM [falling, partial curve, poor fit].

In the case of `COc1ccc(CCNC(=O)C(=O)NCc2cccs2)cc1OC`, under setting [1], the AC50 is 11.2 µM [rising, partial curve, poor fit].

With `Cc1sc(NC(=O)c2ccc(Br)s2)c(C(N)=O)c1C`, the AC50 under setting [1] was 0.0731 µM [rising, full curve]. With `COc1cc(OC)cc(C(=O)NNC(=S)Nc2ccc(S(N)(=O)=O)cc2)c1`, the AC50 under setting [1] was 3.98 µM [falling, partial curve, poor fit] and the AC50 under setting [2] was 25.1 µM [falling, single point]. `O=C(N/N=C/c1c(Cl)[nH]c2ccccc12)c1sc2ccccc2c1Cl`: the AC50 runs as follows: under setting [1], 29.1 µM [falling, single point]; under setting [2], 20.6 µM [rising, partial curve, poor fit]. For `O=C(Nc1ccc2c(c1)oc1ccccc12)c1ccc2c(c1)OCO2`, the AC50 under setting [1] is 3.16 µM [falling, full curve, poor fit]. As for `O=C(/C=C/c1cccs1)Nc1nccs1`, the AC50 is, setting by setting: under setting [1], 3.98 µM [falling, partial curve, poor fit]; under setting [2], 3.55 µM [rising, full curve, poor fit]. For `Nc1c(N2CCCCC2)c(=O)[nH]c(=O)n1-c1ccccc1`, the AC50 under setting [1] was 23.1 µM [rising, single point].

`CCC(=NCc1ccccc1)c1c(C(F)(F)F)[nH]n(-c2nc3ccccc3s2)c1=O`: the AC50 under setting [1] was 14.6 µM [falling, partial curve]. On the same count and under the same terms, then `O=C(Nc1ccccn1)c1ccc(-c2ccccc2)cc1`, with 4.47 µM [falling, partial curve]; and `Clc1ccccc1N1CCN(c2ncnc3nc[nH]c23)CC1`, with 29.1 µM [rising, single point]. For the compound `CCCc1[nH]n(-c2ccc([N+](=O)[O-])cc2)c(=O)c1C(C)=NCc1ccncc1`, the AC50 under setting [1] is 3.55 µM [rising, single point]. The same measure, in the same setting: the figure for `Nc1cc(N)nc(SCCOc2ccccc2)n1` is 0.562 µM [rising, full curve, poor fit]; for `O=C1CCCN1CCC(=O)N1CCCC(CO)(Cc2ccccc2)C1` (stereo not drawn) it is 12.6 µM [rising, partial curve]; for `CC(=O)Nc1cccc(-c2nc(-c3ccccc3)no2)c1` it is 10 µM [falling, partial curve].

For `O=C(NNc1ccccc1Cl)C(O)(c1cccc(C(F)(F)F)c1)c1cccc(C(F)(F)F)c1`, the AC50 under setting [1] is 29.1 µM [falling, single point]. On the same count and under the same terms, then `Cc1ccc(O)c(C(=O)/C=C/c2ccc3c(c2)OCCCO3)c1`, with 14.6 µM [falling, partial curve, poor fit]; and `O=[N+]([O-])c1ccc(O)c(Nc2c([N+](=O)[O-])ccc3nonc23)c1`, with 17.8 µM [rising, single point]. Regarding `Cc1c(C(=O)N2CCN(S(C)(=O)=O)CC2)oc2ccccc12`, the AC50 under setting [1] was 16.4 µM [rising, partial curve, poor fit] and the AC50 under setting [2] was 16.4 µM [falling, partial curve, poor fit]. As for `Cc1cc(C)cc(NC(=S)Nc2ccc3cn[nH]c3c2)c1`, the AC50 under setting [1] was 29.1 µM [falling, partial curve, poor fit]. Take `O=c1c2[nH]c3ccccc3c2ncn1C1CCCCC1`: the AC50 under setting [1] was 6.31 µM [falling, partial curve, poor fit]. Same read-out and setting: the figure for `O=C(c1ccco1)N1CCCN(Cc2nc(-c3cccs3)no2)CC1` is 3.98 µM [rising, single point]; for `CCOc1ccc2c(c1)C(=NNC(=O)c1ccncc1)c1cc(OCC)ccc1-2` it is 20.6 µM [rising, single point]. On the same count and under the same terms, the figure for `CCc1ccc(Nc2nnc(SCc3cc(=O)n4ccsc4n3)s2)cc1` is 14.6 µM [rising, partial curve, poor fit]. `O=C(NCC(c1ccco1)N1CCN(c2ccccc2F)CC1)OCc1ccccc1` (stereo not drawn): the AC50 under setting [2] was 18.4 µM [falling, single point]. Consider `Oc1ccc(N=Nc2nccs2)c(O)c1`, for which the AC50 under setting [1] was 1.26 µM [rising, full curve]. Still for that read-out and setting: the figure for `O=C(CSc1ncc(-c2ccccc2)[nH]1)Nc1ccccc1` is 2.91 µM [rising, partial curve, poor fit]. Still for that read-out and setting: then `O=C(COC(=O)c1ccccc1Br)Nc1ccc(F)cc1`, with 6.31 µM [falling, single point]; and `O=C(CSc1nc2ccccc2[nH]1)Nc1ccccc1F`, with 8.2 µM [falling, partial curve, poor fit]. The same measure, in the same setting: then `COc1ccc(C(=O)c2c(-c3ccc(OC)cc3)oc3ccccc23)cc1`, with 23.1 µM [rising, partial curve, poor fit]. Consider `O=C(N/N=C/c1ccc([N+](=O)[O-])cc1)c1cc(C2CC2)[nH]n1`, for which the AC50 under setting [1] is 7.94 µM [falling, partial curve]. For `CC1SCC(=NOCc2ccccc2)CS1` (stereo not drawn), the AC50 under setting [1] was 35.5 µM [rising, single point].

Regarding `Cc1cc(C)c(C(=O)COC(=O)CCn2c(C)csc2=O)cc1C`, the AC50 under setting [1] is 9.2 µM [rising, partial curve, poor fit]. On the same count and under the same terms, then `COc1cccc(Nc2ncccc2C(=O)O)c1`, with 6.31 µM [rising, single point].
